Molecules are shown by their SMILES. In all, about 1,700 compounds were measured (“T3 sensor activation Q score (MG/GFP ratio z-score vs DMSO controls)”: median about 0.25, highest 2% from about 1.9 on). The list shows a part of the results.

This experiment concerns ppGalNAc-T3 sensor. In words: T3 sensor activation Q score (MG/GFP ratio z-score vs DMSO controls) (SD units); higher = more sensor activation (inhibition of ppGalNAc-T3 glycosylation). The conditions noted are these: HEK293 sensor cells; 10 µM; 6 h. How it is done: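 Cells were treated with compound at 10 uM for 6 h, then MG/GFP ratio was read by flow cytometry (10,000 cells per well, duplicate wells). Q = (R - R_neg)/SD_neg relative to DMSO vehicle controls; the signal rises when the glycosyltransferase is inhibited.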
In the case of `COc1cc(OC)c2c(=O)cc(-c3cccnc3)oc2c1`, the “T3 sensor activation Q score” value amounted to 1.35. Next, `Cc1nc(SCC(=O)O)n[nH]1`: -0.95; `CCN(CC)CCNC(=O)c1ccc(NCN2C(=O)NC(c3ccccc3)(c3ccccc3)C2=O)cc1`: 0.9; `Cn1c(=O)c2c(nc(N3CCOCC3)n2C)n(C)c1=O`: 1. The figure for `C=CC1CN2CCC1CC2C(O)c1ccnc2ccc(OC)cc12` (stereo not drawn) is 0.15; for `Cc1ccc(C)c(-n2c(-c3ccc(Br)cc3)csc2=NC(=O)c2ccccc2F)c1` it is -0.1; for `O=C(C=C=Nc1ccccc1)C(=O)N=C=Cc1ccccc1` it is -2.1. Next, `O=C(Nc1ccc(F)cc1)OCCOc1ccc([N+](=O)[O-])cc1`: 0.95; `COc1ccc(NC2=NC(C)(CO)CS2)cc1` (stereo not drawn): 0.85; `CN1CCC(=C(c2ccc(Cl)cc2)c2ccccn2)CC1`: -0.25.

Regarding `Cc1nn(-c2ccccc2)nc1C(=O)Nc1ccc2[nH]ncc2c1`, the “T3 sensor activation Q score” value was 1.35. The figure for `Cc1ccc(N=Nc2ccc(C)cc2NC(=O)Nc2ccccc2F)cc1` is 1.3. For the compound `CN(C)c1ccc(/C=N\NC(=O)c2cnc3ccccc3c2)cc1`, the “T3 sensor activation Q score” value stood at 0.8. On to `CCNc1ccccc1C(=O)O`, for which the “T3 sensor activation Q score” value is 0.05. The figure for `CC(C)(C)c1ccc(NS(=O)(=O)c2ccc(N)cc2)cc1` is -0.15; for `CC(C)(C)c1ccc(C(=O)N2CCOC23CCCCC3)cc1` it is 1.85; for `NC(=O)CCC(C(=O)O)N1C(=O)c2ccc(O)cc2C1=O` (stereo not drawn) it is -0.1. The figure for `C/C(=N/O)[C@H]1CC[C@H]2[C@@H]3CC[C@@H]4C/C(=N\O)CC[C@]4(C)[C@H]3[C@@](C)(O)C[C@]12C` is -1.3; for `C=C1SC(=Nc2c(C)cccc2Cl)N(C(=O)c2sc3ccccc3c2Cl)C12CCCCC2` it is 0.8; for `COc1ccc(OCC(O)CN2CCN(c3ccc(Cl)cc3)CC2)cc1` (stereo not drawn) it is -1.55.

As to `Cc1ccc(S(=O)(=O)CCOC(=O)CNC(=O)OCc2ccccc2)cc1`, the “T3 sensor activation Q score” value was determined as 0.85. The figure for `CCOC(=O)C(=CNc1ccccc1Cl)C(=O)OCC` is 0.65; for `Cc1nc2ccc(N)nc2nc1C` it is 1. Next, `Nc1nc(Cl)nc2c1ncn2[C@@H]1O[C@H](CO)[C@@H](O)[C@@H]1F`: 0.75; `Cc1ccc(C)c(C(=O)CCC(=O)O)c1`: 0.85; `O=C1c2ccccc2C(=Cc2cccnc2)c2ccccc21`: 0.75. Regarding `CSc1nc(=S)cc(C)[nH]1`, the “T3 sensor activation Q score” value is -0.15. Next, `O=C(Nc1ccc(Nc2ccncc2)cc1)c1ccc(Nc2ccnc3ccc([N+](=O)[O-])cc23)cc1`: 9.85. Regarding `Cc1ccccc1NC(=S)Nc1ccccn1`, the “T3 sensor activation Q score” value is -0.2.

Turning to `COc1c(NC=O)c2c(c([N+](=O)[O-])c1OC)C(=O)OC2`, the “T3 sensor activation Q score” value stood at 0.95. Regarding `O=S1(=O)CSCS(=O)(=O)C1`, the “T3 sensor activation Q score” value was -0.85. In the case of `CC(C)(C)N1CC(OC(N)=O)C1`, the “T3 sensor activation Q score” value came to 1.65.

With `c1ccc2c(c1)[nH]c1c3ccccc3sc21`, the “T3 sensor activation Q score” value is -0.95.

Values taken from the supplement of paper PMC5407854, “Inhibitor of ppGalNAc-T3-mediated O-glycosylation blocks cancer cell invasiveness and lowers FGF23 levels” (eLife, 2017).
